{"source": "PubChem BioAssay AID1487", "about": "(National Center for Advancing Translational Sciences (NCATS), 2009)", "experiment": "qHTS Assay for Modulators of Lamin A Splicing", "details": "HeLa LMNA splicing GFP/RFP minigene ratio, 48 h", "outline": "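S3 HeLa stable clones carrying a lamin A-EGFP splicing minigene plus DsRed2 were seeded at 600 cells/well in Opti-MEM with 2% FBS, pin-dosed and incubated 48 h at 37°C. Acumen cytometry (488 nm) gave the GFP/RFP total-intensity ratio.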", "key": {"[1]": {"details": "measured here: RFP viability control channel"}, "[2]": {"details": "measured here: GFP splicing reporter channel"}}, "note": "The list shows a part of the results. These are further read-outs of the screen, such as a control signal, another cell line or another target. No call is given for them. Compounds called inactive in the main read-out are mostly missing here. The note in brackets gives the kind of curve behind each potency; many fits are weak."}
{"smiles": "CCOC(=O)CN1C(=O)S/C(=C/c2ccc(O)c([N+](=O)[O-])c2)C1=O", "values": [{"measurement": "AC50", "setting": "[1]", "value": "25.1 µM [rising, single point]"}]}
{"smiles": "Cc1ccc(-n2ncc3c(Nc4cccc(Cl)c4)ncnc32)c(C)c1", "values": [{"measurement": "AC50", "setting": "[2]", "value": "35.5 µM [falling, single point]"}]}
{"smiles": "c1ccc([C@H]2CN3CCSC3=N2)cc1", "values": [{"measurement": "AC50", "setting": "[2]", "value": "0.562 µM [rising, full curve, poor fit]"}]}
{"smiles": "CCc1ccc(CNC(=O)CCc2c(C)nn(-c3ccc(N4CCCC4)nn3)c2C)cc1", "values": [{"measurement": "AC50", "setting": "[2]", "value": "0.00631 µM [falling, full curve, poor fit]"}]}
{"smiles": "CCOc1ccc(S(=O)(=O)N2CCOCC2)cc1[N+](=O)[O-]", "values": [{"measurement": "AC50", "setting": "[2]", "value": "0.794 µM [falling, full curve, poor fit]"}, {"measurement": "AC50", "setting": "[1]", "value": "0.0794 µM [falling, full curve, poor fit]"}]}
{"smiles": "COc1cc(/C=N/NC(=S)Nc2cccc(Cl)c2C)ccc1OCC(=O)N1CC(C)OC(C)C1", "note": "(stereo unspecified)", "values": [{"measurement": "AC50", "setting": "[2]", "value": "14.1 µM [rising, single point]"}, {"measurement": "AC50", "setting": "[1]", "value": "12.6 µM [rising, single point]"}]}
{"smiles": "CCc1nnc(NS(=O)(=O)c2ccc(NC(=O)/C=C/c3ccccc3Cl)cc2)s1", "values": [{"measurement": "AC50", "setting": "[2]", "value": "5.01 µM [rising, full curve]"}]}
{"smiles": "CN(C)S(=O)(=O)c1ccc(NC(=O)C2CCCN(C(=O)c3ccc(Cl)cc3)C2)cc1", "note": "(stereo unspecified)", "values": [{"measurement": "AC50", "setting": "[2]", "value": "5.01 µM [rising, partial curve]"}, {"measurement": "AC50", "setting": "[1]", "value": "11.2 µM [rising, partial curve]"}]}
{"smiles": "COc1ccccc1CNC(=O)C(=O)NCC(c1ccco1)S(=O)(=O)c1ccc(C)cc1", "note": "(stereo unspecified)", "values": [{"measurement": "AC50", "setting": "[2]", "value": "35.5 µM [falling, single point]"}]}
{"smiles": "C/C(=N\\Nc1ncc(Cl)cc1Cl)c1cccs1", "values": [{"measurement": "AC50", "setting": "[2]", "value": "0.0355 µM [rising, full curve, poor fit]"}]}
{"smiles": "COc1ccc(C(=O)Nc2ccc(C)cc2C(=O)c2ccccc2)c(OC)c1", "values": [{"measurement": "AC50", "setting": "[2]", "value": "11.2 µM [rising, partial curve, poor fit]"}, {"measurement": "AC50", "setting": "[1]", "value": "14.1 µM [rising, partial curve, poor fit]"}]}
{"smiles": "O=C(NCc1ccccc1Cl)c1ccccc1NC(=O)c1nsc2ccccc12", "values": [{"measurement": "AC50", "setting": "[2]", "value": "1.12 µM [rising, full curve, poor fit]"}]}
{"smiles": "COc1ccccc1-c1cn(S(=O)(=O)c2ccc(F)cc2)nc1N", "values": [{"measurement": "AC50", "setting": "[1]", "value": "12.6 µM [rising, partial curve]"}]}
{"smiles": "Cc1ccc(NC(=O)CN2C(=O)NC3(CCCc4ccccc43)C2=O)cc1S(=O)(=O)N1CCOCC1", "note": "(stereo unspecified)", "values": [{"measurement": "AC50", "setting": "[2]", "value": "5.62 µM [falling, single point]"}]}
{"smiles": "COc1ccc(Br)cc1/C=N/NC(=O)c1cc(Br)ccc1O", "values": [{"measurement": "AC50", "setting": "[2]", "value": "0.0316 µM [falling, full curve, poor fit]"}, {"measurement": "AC50", "setting": "[1]", "value": "0.0316 µM [falling, full curve, poor fit]"}]}
{"smiles": "Cc1ccc(-n2cc(CNCCCN3CCCC3=O)c(-c3ccc(F)cc3)n2)cc1", "values": [{"measurement": "AC50", "setting": "[2]", "value": "2 µM [falling, partial curve]"}]}
{"smiles": "COc1ccccc1OCCn1c(CO)nc2ccccc21", "values": [{"measurement": "AC50", "setting": "[2]", "value": "15.8 µM [rising, partial curve]"}, {"measurement": "AC50", "setting": "[1]", "value": "15.8 µM [rising, single point]"}]}
{"smiles": "c1ccc(CNc2ncnc3ccc(-c4ccoc4)cc23)cc1", "values": [{"measurement": "AC50", "setting": "[2]", "value": "31.6 µM [falling, single point]"}, {"measurement": "AC50", "setting": "[1]", "value": "5.62 µM [falling, partial curve, poor fit]"}]}
{"smiles": "Cc1c([N+](=O)[O-])cc(C(=O)NCc2ccc(F)cc2)cc1[N+](=O)[O-]", "values": [{"measurement": "AC50", "setting": "[1]", "value": "0.398 µM [falling, full curve, poor fit]"}]}
{"smiles": "Cc1sc(NC(=O)c2ccccc2)c(C(c2ccc(Cl)cc2)N2CCN(CCO)CC2)c1C", "note": "(stereo unspecified)", "values": [{"measurement": "AC50", "setting": "[1]", "value": "35.5 µM [falling, single point]"}]}
{"smiles": "COc1ccc(Oc2ccccc2/C=N/O)cc1", "values": [{"measurement": "AC50", "setting": "[1]", "value": "20 µM [rising, partial curve, poor fit]"}]}
{"smiles": "COC(=O)c1[nH]c2ccc(C)cc2c1NC(=O)CCN1CCN(Cc2ccc3c(c2)OCO3)CC1", "values": [{"measurement": "AC50", "setting": "[1]", "value": "10 µM [rising, partial curve]"}]}
{"smiles": "C=C(C)COc1ccc(-c2nc(N)ncc2Oc2ccccc2OC)c(O)c1", "values": [{"measurement": "AC50", "setting": "[2]", "value": "17.8 µM [rising, partial curve]"}, {"measurement": "AC50", "setting": "[1]", "value": "8.91 µM [rising, partial curve, poor fit]"}]}
{"smiles": "Nc1ncnc2c1nc(Br)n2C1O[C@H]2COP(=O)(O)O[C@@H]2C1O", "note": "(stereo partly specified)", "values": [{"measurement": "AC50", "setting": "[2]", "value": "7.08 µM [rising, full curve]"}, {"measurement": "AC50", "setting": "[1]", "value": "5.62 µM [rising, single point]"}]}
{"smiles": "N#Cc1cccc(N=c2ssnc2Cl)c1", "values": [{"measurement": "AC50", "setting": "[2]", "value": "14.1 µM [falling, partial curve, poor fit]"}, {"measurement": "AC50", "setting": "[1]", "value": "35.5 µM [falling, partial curve, poor fit]"}]}
{"smiles": "O=C(CSc1nnc(C2CC2)n1Cc1ccccc1)N1CCN(S(=O)(=O)c2ccccc2)CC1", "values": [{"measurement": "AC50", "setting": "[1]", "value": "0.00891 µM [falling, full curve, poor fit]"}]}
{"smiles": "COC(=O)c1ccc(CSc2nnnn2-c2ccc(C)cc2C)o1", "values": [{"measurement": "AC50", "setting": "[1]", "value": "22.4 µM [rising, single point]"}]}
{"smiles": "O=C(CCC1CCCN(C(=O)c2ccc3c(c2)OCO3)C1)N1CCN(c2ccccn2)CC1", "note": "(stereo unspecified)", "values": [{"measurement": "AC50", "setting": "[2]", "value": "0.158 µM [falling, full curve, poor fit]"}, {"measurement": "AC50", "setting": "[1]", "value": "0.355 µM [falling, full curve]"}]}
{"smiles": "CCOc1ccccc1C1C(C(=O)Nc2ccccc2)=C(C)Nc2nc(SCC(=O)c3ccc(C)cc3)nn21", "note": "(stereo unspecified)", "values": [{"measurement": "AC50", "setting": "[1]", "value": "10 µM [falling, partial curve]"}]}
{"smiles": "CC1CCCCN1CCCNC(=O)CN1C(=O)c2cccnc2Oc2ccc(Cl)cc21", "note": "(stereo unspecified)", "values": [{"measurement": "AC50", "setting": "[1]", "value": "12.6 µM [rising, partial curve, poor fit]"}]}
{"smiles": "O=Cc1c(N2CCN(c3ccccc3)CC2)nc2ccccn2c1=O", "values": [{"measurement": "AC50", "setting": "[2]", "value": "0.00447 µM [falling, full curve, poor fit]"}]}
{"smiles": "O=C(c1ccc(Cl)cc1)N1CCN(CCc2ccncc2)CC1", "values": [{"measurement": "AC50", "setting": "[2]", "value": "0.112 µM [falling, full curve, poor fit]"}]}
{"smiles": "CS(=O)(=O)N1CCC(c2noc(-c3ccc(C(F)(F)F)cc3)n2)CC1", "values": [{"measurement": "AC50", "setting": "[1]", "value": "12.6 µM [rising, partial curve]"}]}
{"smiles": "O=C1OCCN1/N=C/c1ccc([N+](=O)[O-])o1", "values": [{"measurement": "AC50", "setting": "[1]", "value": "12.6 µM [rising, partial curve]"}]}
{"smiles": "CCCC12CN3CCN(CC(C3)/C1=N\\NC(=O)c1ccccc1N)C2", "values": [{"measurement": "AC50", "setting": "[1]", "value": "0.126 µM [rising, partial curve]"}]}
